Reference: publication PMC9394077
These are yes or no findings as the source states them, for the method shown. In cells and extracts the contact can be indirect. Some entries that bind do so weakly or less than the wild type.

Target: T1, CDKN2AIP (CDKN2A interacting protein) (mouse (endogenous in testis)) (UniProt Q8BI72)
T1 sequence: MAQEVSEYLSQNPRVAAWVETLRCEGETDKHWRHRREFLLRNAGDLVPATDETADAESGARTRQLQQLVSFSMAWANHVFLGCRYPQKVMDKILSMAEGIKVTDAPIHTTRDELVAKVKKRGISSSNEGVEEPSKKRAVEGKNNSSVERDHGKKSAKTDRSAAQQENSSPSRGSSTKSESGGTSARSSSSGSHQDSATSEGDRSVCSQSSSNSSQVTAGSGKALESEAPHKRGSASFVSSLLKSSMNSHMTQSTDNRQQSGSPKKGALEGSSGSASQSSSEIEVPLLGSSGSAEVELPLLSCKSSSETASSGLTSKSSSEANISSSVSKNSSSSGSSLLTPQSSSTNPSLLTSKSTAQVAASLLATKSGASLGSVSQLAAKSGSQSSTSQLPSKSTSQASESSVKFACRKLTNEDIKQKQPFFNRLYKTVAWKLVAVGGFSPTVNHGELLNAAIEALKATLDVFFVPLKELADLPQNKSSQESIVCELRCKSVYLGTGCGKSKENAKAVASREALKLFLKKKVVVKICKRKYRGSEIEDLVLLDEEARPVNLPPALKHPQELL
Assay: co-IP; testis lysates from Cdkn2aip+/+ mice; immunoprecipitation with anti-CDKN2AIP antibody, western blot with anti-SUN1 antibody; IgG as control

binding: binds
B1: SUN1 (protein, UniProt Q9D666 1-913)
chain: MDFSRLHTYTPPQCVPENTGYTYALSSSYSSDALDFETEHKLEPVFDSPRMSRRSLRLVTTASYSSGDSQAIDSHISTSRATPAKGRETRTVKQRRSASKPAFSINHLSGKGLSSSTSHDSSCSLRSATVLRHPVLDESLIREQTKVDHFWGLDDDGDLKGGNKAATQGNGELAAEVASSNGYTCRDCRMLSARTDALTAHSAIHGTTSRVYSRDRTLKPRGVSFYLDRTLWLAKSTSSSFASFIVQLFQVVLMKLNFETYKLKGYESRAYESQSYETKSHESEAHLGHCGRMTAGELSRVDGESLCDDCKGKKHLEIHTATHSQLPQPHRVAGAMGRLCIYTGDLLVQALRRTRAAGWSVAEAVWSVLWLAVSAPGKAASGTFWWLGSGWYQFVTLISWLNVFLLTRCLRNICKVFVLLLPLLLLLGAGVSLWGQGNFFSLLPVLNWTAMQPTQRVDDSKGMHRPGPLPPSPPPKVDHKASQWPQESDMGQKVASLSAQCHNHDERLAELTVLLQKLQIRVDQVDDGREGLSLWVKNVVGQHLQEMGTIEPPDAKTDFMTFHHDHEVRLSNLEDVLRKLTEKSEAIQKELEETKLKAGSRDEEQPLLDRVQHLELELNLLKSQLSDWQHLKTSCEQAGARIQETVQLMFSEDQQGGSLEWLLEKLSSRFVSKDELQVLLHDLELKLLQNITHHITVTGQAPTSEAIVSAVNQAGISGITEAQAHIIVNNALKLYSQDKTGMVDFALESGGGSILSTRCSETYETKTALLSLFGVPLWYFSQSPRVVIQPDIYPGNCWAFKGSQGYLVVRLSMKIYPTTFTMEHIPKTLSPTGNISSAPKDFAVYGLETEYQEEGQPLGRFTYDQEGDSLQMFHTLERPDQAFQIVELRVLSNWGHPEYTCLYRFRVHGEPIQ
